Results on 2 molecules are retold here after PMC8264591.

The chains behind the UniProt entries cited, without tags or fusion partners.
UniProt O95863: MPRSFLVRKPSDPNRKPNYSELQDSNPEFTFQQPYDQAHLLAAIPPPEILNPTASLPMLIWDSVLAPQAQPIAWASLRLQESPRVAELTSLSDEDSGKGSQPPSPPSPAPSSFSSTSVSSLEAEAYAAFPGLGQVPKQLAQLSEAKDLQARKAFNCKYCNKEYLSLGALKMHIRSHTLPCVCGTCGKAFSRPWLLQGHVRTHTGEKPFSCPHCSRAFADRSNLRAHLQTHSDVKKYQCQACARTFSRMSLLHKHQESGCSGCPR

In assay [1] the target is T1, F-box/LRR-repeat protein 7 (human (endogenous in BxPC-3)) (UniProt Q9UJT9).
T1 sequence: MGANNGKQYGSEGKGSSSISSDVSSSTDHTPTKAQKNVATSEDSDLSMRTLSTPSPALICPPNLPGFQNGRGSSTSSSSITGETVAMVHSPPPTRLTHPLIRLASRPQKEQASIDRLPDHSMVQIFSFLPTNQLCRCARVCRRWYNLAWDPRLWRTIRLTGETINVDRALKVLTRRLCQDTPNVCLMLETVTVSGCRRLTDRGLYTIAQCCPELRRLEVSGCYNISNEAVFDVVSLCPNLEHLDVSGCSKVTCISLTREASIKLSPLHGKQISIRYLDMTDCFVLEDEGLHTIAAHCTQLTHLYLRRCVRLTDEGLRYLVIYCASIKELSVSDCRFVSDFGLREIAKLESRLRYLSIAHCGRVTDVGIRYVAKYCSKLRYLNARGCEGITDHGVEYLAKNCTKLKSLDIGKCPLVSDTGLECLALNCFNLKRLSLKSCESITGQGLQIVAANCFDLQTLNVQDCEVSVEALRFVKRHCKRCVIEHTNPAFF
Put plainly: co-IP; reciprocal co-IP of endogenous proteins from BxPC-3 cell lysate (RIPA buffer with protease inhibitor cocktail); pre-cleared with protein A + G agarose beads; 20 ug protein incubated with rabbit IgG, anti-Snail or anti-FBXL7 antibody; Western blot.

In assay [2] the target is Snail1 (human (endogenous in BxPC-3)) (UniProt O95863). The assay is described as above.

These are yes or no findings as the source states them, for the method shown. In cells and extracts the contact can be indirect. Some binding calls cover weakened binding; strength is not graded here.

Snail1 (from UniProt O95863 1-264): the binding result in assay [1] was “binds”.

B1: F-box/LRR-repeat protein 7 (protein, UniProt Q9UJT9 1-491)
chain: MGANNGKQYGSEGKGSSSISSDVSSSTDHTPTKAQKNVATSEDSDLSMRTLSTPSPALICPPNLPGFQNGRGSSTSSSSITGETVAMVHSPPPTRLTHPLIRLASRPQKEQASIDRLPDHSMVQIFSFLPTNQLCRCARVCRRWYNLAWDPRLWRTIRLTGETINVDRALKVLTRRLCQDTPNVCLMLETVTVSGCRRLTDRGLYTIAQCCPELRRLEVSGCYNISNEAVFDVVSLCPNLEHLDVSGCSKVTCISLTREASIKLSPLHGKQISIRYLDMTDCFVLEDEGLHTIAAHCTQLTHLYLRRCVRLTDEGLRYLVIYCASIKELSVSDCRFVSDFGLREIAKLESRLRYLSIAHCGRVTDVGIRYVAKYCSKLRYLNARGCEGITDHGVEYLAKNCTKLKSLDIGKCPLVSDTGLECLALNCFNLKRLSLKSCESITGQGLQIVAANCFDLQTLNVQDCEVSVEALRFVKRHCKRCVIEHTNPAFF
Consider B1, for which the binding result in assay [2] is on record as “binds”.
